Source: PMC10753498
These are yes or no findings as the source states them, for the method shown. In cells and extracts the contact can be indirect. Some binding calls cover weakened binding; strength is not graded here.

Protein sequences, listed by entry. Tags and fused reporters are not part of them. Residues count along the entry.
UniProt P63165, residues 1-97: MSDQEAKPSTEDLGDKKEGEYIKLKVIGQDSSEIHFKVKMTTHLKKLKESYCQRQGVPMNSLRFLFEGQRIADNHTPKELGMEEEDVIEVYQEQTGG

Molecular target: T1, DEK (human (endogenous in U2-OS)) (UniProt P35659)
T1 sequence: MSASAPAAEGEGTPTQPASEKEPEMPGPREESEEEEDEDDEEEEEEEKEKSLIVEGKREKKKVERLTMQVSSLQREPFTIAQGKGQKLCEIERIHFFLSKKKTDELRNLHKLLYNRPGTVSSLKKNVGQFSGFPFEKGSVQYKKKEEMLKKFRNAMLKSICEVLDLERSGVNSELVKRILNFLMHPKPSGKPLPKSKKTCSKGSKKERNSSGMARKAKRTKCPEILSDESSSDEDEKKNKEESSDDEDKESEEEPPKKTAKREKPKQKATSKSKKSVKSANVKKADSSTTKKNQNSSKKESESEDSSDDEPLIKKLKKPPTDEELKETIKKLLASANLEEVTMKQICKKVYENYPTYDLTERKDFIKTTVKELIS
Assay: co-IP; U2-OS lysates (hypotonic buffer, 450 mM NaCl, 0.5% NP-40, 10 mM NEM); polyclonal rabbit anti-DEK K-877 with Protein A/G Plus-Agarose; washes with 450 mM NaCl; rabbit IgG isotype control; immunoblot for SUMO1 and SUMO2/3

binding: binds
Substance: small ubiquitin-related modifier 1 (from UniProt P63165 1-97)
